Test results reported in paper PMC7819943, “Rice protein-binding microarrays: a tool to detect cis-acting elements near promoter regions in rice”.
This is one part of the list.

The sequences below were run against T1, OsSMF1 (Oryza sativa, UniProt Q6ZLB0 1-436) (assay: protein-binding microarray (RPBM); PBS, 2% BSA, 51.3 ng/ul salmon testes DNA, 50 uM zinc acetate, 200 nM TF, 25 C, 1 h; high values mean tight binding). Conditions: protein: recombinant; tags: N-terminal polyhistidine and DsRed monomer fusion (pET32a); chain copies: 2; label: CyDye5-dUTP incorporated in the synthesized complementary strand; 3' TTTTT single-stranded linker to array surface; dsDNA, one strand shown.
T1 sequence: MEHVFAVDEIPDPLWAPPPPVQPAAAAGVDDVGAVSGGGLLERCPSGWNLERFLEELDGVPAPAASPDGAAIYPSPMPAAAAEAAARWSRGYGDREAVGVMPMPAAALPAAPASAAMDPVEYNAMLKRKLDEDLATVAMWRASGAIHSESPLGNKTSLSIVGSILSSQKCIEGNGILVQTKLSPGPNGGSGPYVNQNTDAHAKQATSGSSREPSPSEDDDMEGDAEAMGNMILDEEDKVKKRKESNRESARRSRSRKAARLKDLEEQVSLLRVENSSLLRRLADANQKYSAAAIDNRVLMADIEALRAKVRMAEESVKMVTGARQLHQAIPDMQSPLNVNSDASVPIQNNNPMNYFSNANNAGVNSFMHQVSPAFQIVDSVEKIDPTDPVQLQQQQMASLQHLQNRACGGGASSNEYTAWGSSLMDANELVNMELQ
Method in brief: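 Binding signal here means per-feature fluorescence intensity in arbitrary units. The values were read on an Axon 4000B scanner after a custom Agilent array, double-stranded by primer extension with Cy5-dUTP, was incubated with 200 nM protein at 25 °C for 1 h in PBS with 2% BSA, salmon testes DNA and 50 µM zinc acetate, then washed. The proteins were transcription factors with an N-terminal polyhistidine tag and DsRed, expressed in E. coli BL21-CodonPlus and purified on Ni–NTA.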

Sequence	binding signal
AATAAGCAAACAGATAATATGAAAGAGAATGAGGTGTAATCGGAGTCACCTAGTGCAG	3440 fluorescence intensity (a.u.)
CTCTTCCACGCTTCGGCTTCCATCCAATCATCTGCATCGTCGGAGTCACCTAGTGCAG	3170 fluorescence intensity (a.u.)
GAGTTAGCAGTGTTGACCACGGTCAAGGTGCCACGTCATCCGGAGTCACCTAGTGCAG	43000 fluorescence intensity (a.u.)
CACCCAGTCCACCGCGCCGCCATGCCGCGCCACCGGAGCTCGGAGTCACCTAGTGCAG	3290 fluorescence intensity (a.u.)
TTTCTTCATGCACTGCTCCTACGTGCCGCGATCATTGCTTCGGAGTCACCTAGTGCAG	3750 fluorescence intensity (a.u.)
AAGGTGTGTGTCACTGGGGCTTCTGGCTATGTTGCCTCTTCGGAGTCACCTAGTGCAG	4150 fluorescence intensity (a.u.)
TTTTGTCTATATTTAATACTCCATGCATGTGTCCAAAGATCGGAGTCACCTAGTGCAG	3340 fluorescence intensity (a.u.)
CTTTTCTTTCTTTCTTTTCGCACTTACAAAACAGCACTGTCGGAGTCACCTAGTGCAG	3520 fluorescence intensity (a.u.)
GGGACCACAGGACCTTTCTAAACCTGCAGATATAGAATTGCGGAGTCACCTAGTGCAG	19300 fluorescence intensity (a.u.)
GTCCCAAAACTGCACCAACACTGCAACTCACCTTGTTCAGCGGAGTCACCTAGTGCAG	4050 fluorescence intensity (a.u.)
TTGTGATCGTCTCATTGACGCGGCGGCGGCGGCGGTGCTGCGGAGTCACCTAGTGCAG	3660 fluorescence intensity (a.u.)
AGCACTATGTTTGATTCATTGGCCAATGTATGCACGGTAACGGAGTCACCTAGTGCAG	6580 fluorescence intensity (a.u.)
GAGTTGTGTGTATGGACACGTGGTGGGCCAGGGGAGGGGACGGAGTCACCTAGTGCAG	5720 fluorescence intensity (a.u.)
GTCCTTATCTCGGCGTCCGAGCCCACCACCGCACCACCGCCGGAGTCACCTAGTGCAG	3380 fluorescence intensity (a.u.)
TTTGTGTGTGTAGGAAAATTTTGATGTGATGGAAAAGTTGCGGAGTCACCTAGTGCAG	3450 fluorescence intensity (a.u.)
GTGATTCACAAAAGAAAGCCTATCACGCGTGGAAACATCCCGGAGTCACCTAGTGCAG	3990 fluorescence intensity (a.u.)
GCCCGGAAGCTAGCGCCTCGTCGACTTGGGCGGCGGCTGACGGAGTCACCTAGTGCAG	18000 fluorescence intensity (a.u.)
CCAACGCCTCGTCCGCGCGTGTCGACCTGGCGATCGCCTGCGGAGTCACCTAGTGCAG	5150 fluorescence intensity (a.u.)
CCTCGCGCCGCCGCTGCGTCATCTCCGGCCTCCGTCGCACCGGAGTCACCTAGTGCAG	6430 fluorescence intensity (a.u.)
AAAGGATGATATTTATTCGATCCTTGTTCGAATGTAGACTCGGAGTCACCTAGTGCAG	55700 fluorescence intensity (a.u.)
AGAGGAGGAGGAGGAGGAGGAAGGAAACCCACGAGGGCACCGGAGTCACCTAGTGCAG	20200 fluorescence intensity (a.u.)
CGGGTCGTCTTCATCGACCTCCTACGCCCCGTCACGGCGCCGGAGTCACCTAGTGCAG	4810 fluorescence intensity (a.u.)
TCTGCTTCTTGCGCCAAAGCTTCTGCTCACGTGTGATTTGCGGAGTCACCTAGTGCAG	5420 fluorescence intensity (a.u.)
ATAATGGGAAATGTGGGGTAGGATTGGTATTGGAAAATGACGGAGTCACCTAGTGCAG	3180 fluorescence intensity (a.u.)
CAAAATACAGCAACATTTACAGCTTCGACACTGCACTCAACGGAGTCACCTAGTGCAG	3410 fluorescence intensity (a.u.)
CCCCGGACTCCACTCTACACCCTTCACGCGCGCGAGCACGCGGAGTCACCTAGTGCAG	3410 fluorescence intensity (a.u.)
CATACACACACTGTGTCTTAGAGTCCGTGCTACAGCTGGCCGGAGTCACCTAGTGCAG	3150 fluorescence intensity (a.u.)

A second format for part of the listing above:
GAGTTGTGTGTATGGACACGTGGTGGGCCAGGGGAGGGGACGGAGTCACCTAGTGCAG
  binding signal: 5720 fluorescence intensity (a.u.)
GTCCTTATCTCGGCGTCCGAGCCCACCACCGCACCACCGCCGGAGTCACCTAGTGCAG
  binding signal: 3380 fluorescence intensity (a.u.)
TTTGTGTGTGTAGGAAAATTTTGATGTGATGGAAAAGTTGCGGAGTCACCTAGTGCAG
  binding signal: 3450 fluorescence intensity (a.u.)
GTGATTCACAAAAGAAAGCCTATCACGCGTGGAAACATCCCGGAGTCACCTAGTGCAG
  binding signal: 3990 fluorescence intensity (a.u.)

Next results.

Sequence	binding signal
AGTAGGACGTCCTTTCGCCTCGTCGTCCACGTTGGAAAACCGGAGTCACCTAGTGCAG	4700 fluorescence intensity (a.u.)
GGACGTGGTGTTTTGCAAGATTGCTGATCACATGGAGAAACGGAGTCACCTAGTGCAG	3620 fluorescence intensity (a.u.)
AATCATGCCTTAATCTAGGCCTCGTTCGAACTAAGGCATGCGGAGTCACCTAGTGCAG	24500 fluorescence intensity (a.u.)
AGAAAACCAATCCGAATCCGGAGAGAGAAGCGCAGGAGGCCGGAGTCACCTAGTGCAG	10200 fluorescence intensity (a.u.)
TGGCGCGCTCAGAGACGGCCTCACACGTACGACTCGCCTCCGGAGTCACCTAGTGCAG	20400 fluorescence intensity (a.u.)
TGCTTCCGTTTGTTGATCGATGCTGGCGATGATGTGTGTGCGGAGTCACCTAGTGCAG	4160 fluorescence intensity (a.u.)
GTATTTAGCCCTGGTTGTATGGTCATGACGGGTTATCGTACGGAGTCACCTAGTGCAG	3280 fluorescence intensity (a.u.)
TACCAGTCCCGAAACAACTAGTATTTCTCTTCGATACGGACGGAGTCACCTAGTGCAG	3520 fluorescence intensity (a.u.)
CGCCCACCTATCTTACCACTGACACATTGGCCCCACCACCCGGAGTCACCTAGTGCAG	4120 fluorescence intensity (a.u.)
GCCGCTCGCCGGCACCACGTCGCCTTCTCCCCTTGCAGACCGGAGTCACCTAGTGCAG	3670 fluorescence intensity (a.u.)
GTGTGTGTGTGTGTATATATAATCCAAATATAATACTTTTCGGAGTCACCTAGTGCAG	3620 fluorescence intensity (a.u.)
AACCCAATCTTACACACATCTGTCATCAAGATCCGTGCGCCGGAGTCACCTAGTGCAG	3980 fluorescence intensity (a.u.)
GTGGACCGTGGTTACACGTGCCAGGTCGACGTGTTCTTCTCGGAGTCACCTAGTGCAG	6290 fluorescence intensity (a.u.)
TAAAGTTCTTGCTGCTGTGACTCTGCTTTGCTTGCTTCTTCGGAGTCACCTAGTGCAG	4740 fluorescence intensity (a.u.)
TACGCTCTCGCAGCGCCTCCACGTGCCCGTGTCACGCTCGCGGAGTCACCTAGTGCAG	6640 fluorescence intensity (a.u.)
CGTATCCGTGTCTCGATCTGGGCCCCACCTGTCAGTGTCTCGGAGTCACCTAGTGCAG	4010 fluorescence intensity (a.u.)
CTGGAATGGTCTCGGAGGGTTCTTAGCTGGCTTTTCGATTCGGAGTCACCTAGTGCAG	3500 fluorescence intensity (a.u.)
CGATTTTCTATTTGCTTCCAACGCTGAATGTACGTATCTGCGGAGTCACCTAGTGCAG	3680 fluorescence intensity (a.u.)
GGAAGAGCCCGTGATGGTGTTACGTCCACGTCAGCCCAGCCGGAGTCACCTAGTGCAG	35800 fluorescence intensity (a.u.)
GCGTGACCCGCGTTTAGACTTTTGACTAGCCAACTCACACCGGAGTCACCTAGTGCAG	3740 fluorescence intensity (a.u.)
ACTCAATAGAAGTGAGTCTAATGAATCTAGTCAGATTGGCCGGAGTCACCTAGTGCAG	4060 fluorescence intensity (a.u.)
TGATCCCCGCCGGCCGCCGCCGCCCTCGCAACCCTCGCAGCGGAGTCACCTAGTGCAG	3470 fluorescence intensity (a.u.)
CAAATCTAACCCTGTCATCGATGTGTGTTATCGGTGACGGCGGAGTCACCTAGTGCAG	5670 fluorescence intensity (a.u.)
CGCCCGCTTCGACGACCACACGTGGGCTCGCCACGTGTCACGGAGTCACCTAGTGCAG	12400 fluorescence intensity (a.u.)
TACCATCCTGTGACGCTAGTGGCCACCTCCCTTCACGCAGCGGAGTCACCTAGTGCAG	3500 fluorescence intensity (a.u.)
TAGCGTTGATCTTTTGCTAATCTCTGAATCTAGCACGCGGCGGAGTCACCTAGTGCAG	3340 fluorescence intensity (a.u.)
ACACCACTCTCTCGTTCTCTCTCTCTCTCCCCGTCTTCCTCGGAGTCACCTAGTGCAG	3290 fluorescence intensity (a.u.)
